Source: publication PMC11116102, “A naturally occurring variant of SHLP2 is a protective factor in Parkinson’s disease” (Molecular Psychiatry, 2024)
Results are given in words; binding and its absence hold for the method and conditions named. In cells and extracts the contact can be indirect. Here binding means that the protein was enriched with, or labelled near, the bait; the list need not be complete.

By UniProt entry, the sequences of proteins in these tests, tags left out. Residues count along the entry.
UniProt Q3ZCQ8, residues 45-353: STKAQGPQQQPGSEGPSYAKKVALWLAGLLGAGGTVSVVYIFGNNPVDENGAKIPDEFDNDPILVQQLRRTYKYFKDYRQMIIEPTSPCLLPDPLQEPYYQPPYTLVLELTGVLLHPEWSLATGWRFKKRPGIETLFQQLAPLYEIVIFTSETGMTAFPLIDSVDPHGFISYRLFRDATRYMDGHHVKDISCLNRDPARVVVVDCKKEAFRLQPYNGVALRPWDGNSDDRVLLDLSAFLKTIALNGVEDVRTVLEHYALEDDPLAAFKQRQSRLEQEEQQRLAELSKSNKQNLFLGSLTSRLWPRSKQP

T1: Small Humanin-like Peptide 2 (SHLP2), synthetic peptide (human)
T1 sequence (peptide): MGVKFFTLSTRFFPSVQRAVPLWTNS


Target: T1, Small Humanin-like Peptide 2 (SHLP2), synthetic peptide (human)
Assay: affinity purification with mass spectrometry; SHLP2 peptide (control: scrambled peptide) pre-immobilized on agarose beads (CarboxyLink kit); 1.6-1.9 mg of HEK293 mitochondrial protein extract (0.1% NP-40 lysis buffer) incubated in the column at 4 C overnight; eluate analysed by mass spectrometry; only the target purified

Molecule | binding
Tim50 (from UniProt Q3ZCQ8 45-353) | binds
Timm9 (protein, UniProt Q9Y5J7 1-89) MAAQIPESDQIKQFKEFLGTYNKLTETCFLDCVKDFTTREVKPEETTCSEHCLQKYLKMTQRISMRFQEYHIQQNEALAAKAGLLGQPR | binds

Second part, the molecule after the results:

binding | Molecule
binds | Timm10 (protein, UniProt P62072 1-90) MDPLRAQQLAAELEVEMMADMYNRMTSACHRKCVPPHYKEAELSKGESVCLDRCVSKYLDIHERMGKKLTELSMQDEELMKRVQQSSGPA
binds | Timm10B (protein, UniProt Q9Y5J6 1-103) MERQQQQQQQLRNLRDFLLVYNRMTELCFQRCVPSLHHRALDAEEEACLHSCAGKLIHSNHRLMAAYVQLMPALVQRRIADYEAASAVPGVAAEQPGVSPSGS
